The record followed here is publication PMC7819943, “Rice protein-binding microarrays: a tool to detect cis-acting elements near promoter regions in rice”.

By UniProt entry, the sequences of proteins in these tests, tags left out.
UniProt Q0JBA9, entry or part of it: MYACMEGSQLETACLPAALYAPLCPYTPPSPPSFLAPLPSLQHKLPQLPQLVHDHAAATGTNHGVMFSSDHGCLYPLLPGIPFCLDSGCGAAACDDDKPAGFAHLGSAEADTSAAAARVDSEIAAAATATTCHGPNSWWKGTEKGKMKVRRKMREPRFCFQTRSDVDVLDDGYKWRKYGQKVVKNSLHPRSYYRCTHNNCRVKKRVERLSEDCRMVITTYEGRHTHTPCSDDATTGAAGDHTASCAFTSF

The list shows a part of the results.

This test has as its target OsWRKY34 (Oryza sativa, UniProt Q0JBA9 1-250). As to the kind of experiment: protein-binding microarray (RPBM); PBS, 2% BSA, 51.3 ng/ul salmon testes DNA, 50 uM zinc acetate, 200 nM TF, 25 C, 1 h; high values mean tight binding. Particulars: protein: recombinant; tags: N-terminal polyhistidine and DsRed monomer fusion (pET32a); label: CyDye5-dUTP incorporated in the synthesized complementary strand; 3' TTTTT single-stranded linker to array surface; dsDNA, one strand shown. The method, boiled down: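 Per-feature fluorescence intensity (arbitrary units), read on an Axon 4000B scanner, is the binding signal. Transcription factors carrying an N-terminal polyhistidine tag and DsRed fusion were expressed in E. coli BL21-CodonPlus and purified on Ni–NTA. A custom Agilent array, made double-stranded by primer extension with Cy5-dUTP and blocked with 2% BSA, was incubated with 200 nM protein in PBS, 2% BSA, salmon testes DNA and 50 µM zinc acetate at 25 °C for 1 h and then washed.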
On to “ATTGAAGGTCTGCCTGTTTCAGATCATGCTTCTTGTATTTCGGAGTCACCTAGTGCAG”, for which the binding signal is 8960 fluorescence intensity (a.u.).

In the case of “TTCATATCCCTTAATCCGTTCGTCCGATTGCCTCCGTTCCCGGAGTCACCTAGTGCAG”, the binding signal is 10200 fluorescence intensity (a.u.).

On to “ATCTTTTTTTTTCACCTTCTTTGTCTTCTTCCTTCCCAAACGGAGTCACCTAGTGCAG”, for which the binding signal is 10200 fluorescence intensity (a.u.).

As to “TATAATATTTGTTTCAGCCACCTAGCAACATTGTGGAACTCGGAGTCACCTAGTGCAG”, the binding signal is 9500 fluorescence intensity (a.u.).

Regarding “ATAACATCATGTTCTTTCACTGTGTTTTTTTTTTGCAAATCGGAGTCACCTAGTGCAG”, the binding signal is 8260 fluorescence intensity (a.u.).

Regarding “TGCACTCCGACTCCCGATTTTTGGTTTCGATCTGGTCGCACGGAGTCACCTAGTGCAG”, the binding signal is 10700 fluorescence intensity (a.u.).

Consider “GATCCAACCCGTGCCCGCCCGCCTCGACATGCGCGTCCGACGGAGTCACCTAGTGCAG”, for which the binding signal is 8970 fluorescence intensity (a.u.).

As for “TAAGAAGAGGATGGGGTCATGGGGTGTTAGTTAATTGCATCGGAGTCACCTAGTGCAG”, the binding signal was 9690 fluorescence intensity (a.u.).

Turning to “CTTTTCTTTTCAATTTTTTGAGCGTTGACCATACTTAAATCGGAGTCACCTAGTGCAG”, the binding signal was 14800 fluorescence intensity (a.u.).

As to “AGGTGTTCGTTTTTTCTTTCTTTTTTTTGAATAACAGAATCGGAGTCACCTAGTGCAG”, the binding signal is 10700 fluorescence intensity (a.u.).

Take “GAGAGGGGCTGTATATGTACTAGTAGTAGAGGTTAGCGTTCGGAGTCACCTAGTGCAG”: the binding signal is 10600 fluorescence intensity (a.u.).

On to “ACTGGATTATTAGTTGTTTGTAAGCTGTACGTTAGCCATACGGAGTCACCTAGTGCAG”, for which the binding signal is 10500 fluorescence intensity (a.u.).

Consider “ATGGTAGTGCCTCTCATCCATACAACACGGCTTCCTCATGCGGAGTCACCTAGTGCAG”, for which the binding signal is 8150 fluorescence intensity (a.u.).

As to “CCAATTTCTCTCTCCACATCTCTCTGTGTTTCTTTTATTTCGGAGTCACCTAGTGCAG”, the binding signal is 9680 fluorescence intensity (a.u.).

For “GACCTAACTCCGTCCACTTCCACACTACTACTACTGTCTACGGAGTCACCTAGTGCAG”, the binding signal is 10200 fluorescence intensity (a.u.).

Regarding “TTCGTGGTCTGGTTGGCAACAGTTTCCTGTCCGTTGCTTTCGGAGTCACCTAGTGCAG”, the binding signal was 8540 fluorescence intensity (a.u.).

Regarding “CCCTCACTTTACATTTTTTTTCTCTTATAATTTATTTTTTCGGAGTCACCTAGTGCAG”, the binding signal was 13300 fluorescence intensity (a.u.).

Take “TGGTTACATTCTAAATCAAGAGCCTCATCTTTTCGCTTATCGGAGTCACCTAGTGCAG”: the binding signal was 8440 fluorescence intensity (a.u.).

On to “ACTATTGGTTCCGTTTGTGAACCTGGCAATGTTTTGTAATCGGAGTCACCTAGTGCAG”, for which the binding signal was 8680 fluorescence intensity (a.u.).

On to “CATTGGGCTGGGCTAGCCTTTGTTGGGCCGTTTTAAATCACGGAGTCACCTAGTGCAG”, for which the binding signal is 8270 fluorescence intensity (a.u.).

“ACTTCAGATGTTTCTTGTTCCTACACTTCGCTGCTTCAGTCGGAGTCACCTAGTGCAG”: the binding signal is 11800 fluorescence intensity (a.u.).

In the case of “GGGTCTCATAGTGTTTGTTATTTTTTTTGGATCGAACTACCGGAGTCACCTAGTGCAG”, the binding signal is 8380 fluorescence intensity (a.u.).

Consider “CCGCCTGGTCGCCACCACCGCTCGCAACCGCCTGGCCGTCCGGAGTCACCTAGTGCAG”, for which the binding signal is 10800 fluorescence intensity (a.u.).

Regarding “AGGTATATTCTTATAAGTAATTTTTATTCCACAAAATTTTCGGAGTCACCTAGTGCAG”, the binding signal is 8510 fluorescence intensity (a.u.).

As for “GTTATTTATCCGGCTACGAGCCAATGCACGTAAACAATCTCGGAGTCACCTAGTGCAG”, the binding signal is 8260 fluorescence intensity (a.u.).

Turning to “GTCACGCACCTACTCCGCTACTGCTTGCGACTCGCGAGACCGGAGTCACCTAGTGCAG”, the binding signal was 8650 fluorescence intensity (a.u.).

For the sequence “GAAGAGGCACGCACCACGAAGTCGCCACCTCGATTTTTCCCGGAGTCACCTAGTGCAG”, the binding signal is 9140 fluorescence intensity (a.u.).

For “CCAGCAGTAGCCAATCCCACTGCACGTCCGCACGCAGCCACGGAGTCACCTAGTGCAG”, the binding signal was 8390 fluorescence intensity (a.u.).

Consider “TTGTGCTCTCCTTTTGTCAGTTCCTGAGGCGCTCTCTCCTCGGAGTCACCTAGTGCAG”, for which the binding signal is 8930 fluorescence intensity (a.u.).

Consider “TAAAATAGCTTTCACCCACGGGCGGGACATTTTTTCTAAGCGGAGTCACCTAGTGCAG”, for which the binding signal was 10600 fluorescence intensity (a.u.).

On to “CCGCTCCGCCCAGCACCCGCCGACCGCTGCCGCTCTCGCACGGAGTCACCTAGTGCAG”, for which the binding signal was 11400 fluorescence intensity (a.u.).

Take “GGAGGTCGGTCTCGATCGCCATTGATGGCCACTCGTTTCCCGGAGTCACCTAGTGCAG”: the binding signal is 8140 fluorescence intensity (a.u.).

As for “CTTATTTGCACTGGTTTTGAGAGTTGAGGGACACGTCATACGGAGTCACCTAGTGCAG”, the binding signal is 8280 fluorescence intensity (a.u.).

As to “AAACGCCAACGCCATACTCCACCTGACCTCACACTCGCACCGGAGTCACCTAGTGCAG”, the binding signal was 9220 fluorescence intensity (a.u.).

Turning to “GCCTTCTGGAGTCGATTCACTAATCCGTCCCTTTTGAATACGGAGTCACCTAGTGCAG”, the binding signal is 8270 fluorescence intensity (a.u.).

“CAAGATTGTGACTCTGACCAGTAACACCGGCACACTTGCACGGAGTCACCTAGTGCAG”: the binding signal is 8530 fluorescence intensity (a.u.).

Turning to “CTCTCCATCCGCTCGCGGCTCGCGCTCGCCCATCCAATCCCGGAGTCACCTAGTGCAG”, the binding signal was 10600 fluorescence intensity (a.u.).

On to “TTCTTGGCCGGTCGAGGTGGTGGTGGTGGTGATAAACGGTCGGAGTCACCTAGTGCAG”, for which the binding signal is 8650 fluorescence intensity (a.u.).

In the case of “GACTTTTTTCTGACACTTATTTTTGCCTTTCTATATGTTCCGGAGTCACCTAGTGCAG”, the binding signal is 9200 fluorescence intensity (a.u.).

Consider “GGGGATTAATGGATTATAATGTGTCTTATAACTAAAAGGACGGAGTCACCTAGTGCAG”, for which the binding signal was 8840 fluorescence intensity (a.u.).

In the case of “GTGGCAAACTTTTATATGGTGGTCTGTGACTTTGTGTGCTCGGAGTCACCTAGTGCAG”, the binding signal was 8670 fluorescence intensity (a.u.).

Turning to “AGGATAATTCAAATGGTTTTGGGCTTATTTTTTTTTTTTACGGAGTCACCTAGTGCAG”, the binding signal was 11000 fluorescence intensity (a.u.).
